Test results from paper PMC7480108.
Results are given in words; binding and its absence hold for the method and conditions named. In cells and extracts the contact can be indirect. Binding can be weak; no strength is given.

Columns and labels:
TKS5^GFP (human) = assay: co-IP; GFP-Trap (anti-GFP nanobody beads) from NP-40 lysates of MDA-MB-231 cells expressing GFP-tagged constructs, 1 h 4°C; immunoblotting of bound proteins
TKS5^GFPW861A (human) = assay: as above

- binding (TKS5^GFP (human)): binds
- binding (TKS5^GFPW861A (human)): binds
B1: endogenous FGD1 (faciogenital dysplasia protein 1) (protein, UniProt P98174 1-961)
chain: MHGHRAPGGAGPSEPEHPATNPPGAAPPACADSDPGASEPGLLARRGSGSALGGPLDPQFVGPSDTSLGAAPGHRVLPCGPSPQHHRALRFSYHLEGSQPRPGLHQGNRILVKSLSLDPGQSLEPHPEGPQRLRSDPGPPTETPSQRPSPLKRAPGPKPQVPPKPSYLQMPRMPPPLEPIPPPPSRPLPADPRVAKGLAPRAEASPSSAAVSSLIEKFEREPVIVASDRPVPGPSPGPPEPVMLPQPTSQPPVPQLPEGEASRCLFLLAPGPRDGEKVPNRDSGIDSISSPSNSEETCFVSDDGPPSHSLCPGPPALASVPVALADPHRPGSQEVDSDLEEEDDEEEEEEKDREIPVPLMERQESVELTVQQKVFHIANELLQTEKAYVSRLHLLDQVFCARLLEEARNRSSFPADVVHGIFSNICSIYCFHQQFLLPELEKRMEEWDRYPRIGDILQKLAPFLKMYGEYVKNFDRAVELVNTWTERSTQFKVIIHEVQKEEACGNLTLQHHMLEPVQRIPRYELLLKDYLLKLPHGSPDSKDAQKSLELIATAAEHSNAAIRKMERMHKLLKVYELLGGEEDIVSPTKELIKEGHILKLSAKNGTTQDRYLILFNDRLLYCVPRLRLLGQKFSVRARIDVDGMELKESSNLNLPRTFLVSGKQRSLELQARTEEEKKDWVQAINSTLLKHEQTLETFKLLNSTNREDEDTPPNSPNVDLGKRAPTPIREKEVTMCMRCQEPFNSITKRRHHCKACGHVVCGKCSEFRARLVYDNNRSNRVCTDCYVALHGVPGSSPACSQHTPQRRRSILEKQASVAAENSVICSFLHYMEKGGKGWHKAWFVVPENEPLVLYIYGAPQDVKAQRSLPLIGFEVGPPEAGERPDRRHVFKITQSHLSWYFSPETEELQRRWMAVLGRAGRGDTFCPGPTLSEDREMEEAPVAALGATAEPPESPQTRDKT
